Test system: Sigma 2 (S2R)
Format: binding
Details: for S2R selectivity: S2R over S1R, Table 1

SMILES | selectivity over S1R | S2R selectivity
CCC1CC2CC3c4[nH]c5cc(C(F)(F)F)ccc5c4CCN(C2)C13 (centres unmarked) [7e] | 7.4 × | 7.4
C[C@H]1CC2CC3c4[nH]c5ccccc5c4CCN(C2)C31 (some centres unmarked) [7g] |  | 1.5
CC[C@H]1C[C@H]2C[C@H]3c4[nH]c5ccccc5c4CCN(C2)[C@@H]13 [ibogamine (1), ibogamine, reference compound] |  | 12.9
CC[C@H]1C[C@@H]2C[C@H]3c4[nH]c5cc(OC)ccc5c4CC[N@@](C2)[C@@H]13 [tabernanthine (3), tabernanthine, reference compound] |  | 8.4
